Results taken from patent publication US20130178488A1, “TRICYCLIC COMPOUNDS, PREPARATION METHODS, AND THEIR USES” (priority 2011, published 2013).
Some entries share one result that the patent states for a list of compounds. At least one structure is not confirmed: it was looked up by name or label, or the drawing left a doubt.

Target: T1, recombinant human Lp-PLA2 (Homo sapiens, UniProt Q13093)
T1 sequence (Q13093 22-441): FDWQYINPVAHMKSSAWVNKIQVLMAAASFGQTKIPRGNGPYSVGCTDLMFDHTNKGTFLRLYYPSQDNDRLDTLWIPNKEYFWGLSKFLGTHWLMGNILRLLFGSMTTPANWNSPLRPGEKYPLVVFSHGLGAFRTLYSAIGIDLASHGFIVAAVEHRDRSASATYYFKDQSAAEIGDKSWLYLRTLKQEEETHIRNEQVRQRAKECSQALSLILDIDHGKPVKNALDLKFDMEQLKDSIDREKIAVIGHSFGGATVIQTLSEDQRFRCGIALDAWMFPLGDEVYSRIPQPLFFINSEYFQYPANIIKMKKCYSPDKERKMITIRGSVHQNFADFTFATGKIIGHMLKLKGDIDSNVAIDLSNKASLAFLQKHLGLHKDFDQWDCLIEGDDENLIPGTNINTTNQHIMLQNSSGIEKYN
Test: Recombinant human Lp-PLA2 assay (rhLp-PLA2, PED6 assay)
Assay type: biochemical
Details: thresholds stated in text; upper limit of the assay is 9.3
From the text: (1) Recombinant Human Lp-PLA2 Assay (rhLp-PLA2) (Also Referred to as “PED6” Assay)
N-((6-(2,4-dinitrophenyl)amino)-hexanoyl)-2-(4,4-difluoro-5,7-dimethyl-4-bora-3a,4a-diaza-s-indacene-3-pentanoyl)-1-hexadecanoyl-sn-glycero-3-phosphoethanolamine, triethylammonium salt (PED6) is a commercially available fluorescently-labeled phospholipid, which is commercially available from Molecular Probes. There is a quenching para-nitro phenyl (PNP) group in the sn3 position and a Bodipy fluorescein (FL) group in the sn2 position. Upon cleavage with LpPLA2, the Bodipy Fl group is liberated and then may result in an increase in fluorescence. Inhibitors of LpPLA2 therefore prevent this cleavage and no fluorescent increase is observed.
The PED6 assay is run as an unquenched 10 μL assay. Compounds source plate is prepared by making 1:3 (by volume) serial dilution of the compounds into pure DMSO on 384-well microplate. Then 0.01 μL of compounds on compound source plate are transferred into 384 well Greiner 784076 (black) plates by ECHO liquid dispenser. 5 μL of recombinant human Lp-PLA2 enzyme (2 nM rhLp-PLA2 in assay buffer of 50 mM HEPES, pH7.4, 150 mM NaCl, 1 mM CHAPS) is added to each well of the plate with compounds. Plates are centrifuged for 10 sec at 500 rpm. After 30 minutes preincubation, 5 μL of substrate (4 μM PED6 [from 5 mM DMSO stock] in assay buffer of 50 mM HEPES, pH7.4, 150 mM NaCl, 1 mM CHAPS) is added to 384 well Greiner 784076 (black) plates. Plates are centrifuged for 10 sec at 500 rpm. Plate is covered to protect from light and incubated for 20 min at room temperature. Plates are read for Fluorescence intensity at ex: 480/em: 540 using ViewLux microplate imager. PIC50 data, curve and QC analysis is conducted by using XL fit module in Excel.

Structure (SMILES)	pIC50 values in the PED6 assay
COc1ccc2c(c1)CCn1c-2cc(OCc2ccc(Oc3ccc(Cl)cn3)c(C#N)c2)nc1=O [Example 77, 2-((5-chloropyridin-2-yl)oxy)-5-(((9-methoxy-4-oxo-6,7-dihydro-4H-pyrimido[6,1-a]isoquinolin-2-yl)oxy)methyl)benzonitrile]	at least 8.0
COc1ccc2c(c1)CCn1c-2cc(OCCc2ccc(Oc3cccc(C(F)(F)F)c3)c(C#N)c2)nc1=O [Example E44, 5-(2-((9-methoxy-4-oxo-6,7-dihydro-4H-pyrimido[6,1-a]isoquinolin-2-yl)oxy)ethyl)-2-(3-(trifluoromethyl)phenoxy)benzonitrile]	at least 8.0
COc1ccc2c(c1)CCn1c-2cc(OCCc2ccc(Oc3cnc(C(F)(F)F)nc3)c(C#N)c2)nc1=O [Example 83, 5-(2-((9-methoxy-4-oxo-6,7-dihydro-4H-pyrimido[6,1-a]isoquinolin-2-yl)oxy)ethyl)-2-((2-(trifluoromethyl)pyrimidin-5-yl)oxy)benzonitrile]	at least 8.0
COc1ccc2c(c1)CCn1c-2cc(OCCc2ccc(Oc3ccc(C(F)(F)F)cn3)c(C#N)c2)nc1=O [Example E56, 5-(2-((9-methoxy-4-oxo-6,7-dihydro-4H-pyrimido[6,1-a]isoquinolin-2-yl)oxy)ethyl)-2-((5-(trifluoromethyl)pyridin-2-yl)oxy)benzonitrile]	at least 8.0
N#Cc1cc(COc2cc3n(c(=O)n2)CCc2cc(F)ccc2-3)ccc1Oc1cccc(C(F)(F)F)c1 [Example 89, 5-(((9-fluoro-4-oxo-6,7-dihydro-4H-pyrimido[6,1-a]isoquinolin-2-yl)oxy)methyl)-2-(3-(trifluoromethyl)phenoxy)benzonitrile]	at least 8.0
Cc1ccc2c(c1)CCn1c-2cc(OCc2ccc(Oc3ccc(C(F)(F)F)nc3)c(F)c2)nc1=O [Example 118, 2-((3-fluoro-4-((6-(trifluoromethyl)pyridin-3-yl)oxy)benzyl)oxy)-9-methyl-6,7-dihydro-4H-pyrimido[6,1-a]isoquinolin-4-one]	at least 8.0
COc1ccc2c(c1)CCn1c-2cc(OCc2ccc(Oc3cncnc3)c(C#N)c2)nc1=O [Example E48, 5-(((9-methoxy-4-oxo-6,7-dihydro-4H-pyrimido[6,1-a]isoquinolin-2-yl)oxy)methyl)-2-(pyrimidin-5-yloxy)benzonitrile]	at least 8.0
O=c1nc(OCc2ccc(Oc3ccc(C(F)(F)F)nc3)c(F)c2)cc2n1CCc1cc(F)ccc1-2 [Example 122, 9-fluoro-2-((3-fluoro-4-((6-(trifluoromethyl)pyridin-3-yl)oxy)benzyl)oxy)-6,7-dihydro-4H-pyrimido[6,1-a]isoquinolin-4-one]	at least 8.0
COc1ccc2c(c1)CCn1c-2cc(OCc2ccc(Oc3ccc(Cl)c(C(F)(F)F)c3)c(C#N)c2)nc1=O [Example E43, 2-(4-chloro-3-(trifluoromethyl)phenoxy)-5-(((9-methoxy-4-oxo-6,7-dihydro-4H-pyrimido[6,1-a]isoquinolin-2-yl)oxy)methyl)benzonitrile]	at least 8.0
O=c1nc(OCCc2ccc(Oc3cccc(C(F)(F)F)c3)cc2)cc2n1CCc1ccccc1-2 [Example 108, 2-(4-(3-(trifluoromethyl)phenoxy)phenethoxy)-6,7-dihydro-4H-pyrimido[6,1-a]isoquinolin-4-one]	at least 8.0
O=c1nc(OCc2ccc(Oc3cnc(C(F)(F)F)nc3)c(F)c2)cc2n1CCc1cc(F)ccc1-2 [Example 98, 9-fluoro-2-((3-fluoro-4-((2-(trifluoromethyl)pyrimidin-5-yl)oxy)benzyl)oxy)-6,7-dihydro-4H-pyrimido[6,1-a]isoquinolin-4-one]	at least 9.0
N#Cc1cc(COc2cc3n(c(=O)n2)CCc2cc(F)ccc2-3)ccc1Oc1ccc(Cl)c(C(F)(F)F)c1 [Example 92, 2-(4-chloro-3-(trifluoromethyl)phenoxy)-5-(((9-fluoro-4-oxo-6,7-dihydro-4H-pyrimido[6,1-a]isoquinolin-2-yl)oxy)methyl)benzonitrile]	at least 9.0
COc1ccc2c(c1)CCn1c-2cc(OCc2ccc(Oc3cnc(C(F)(F)F)nc3)c(C#N)c2)nc1=O [Example 79, 5-(((9-methoxy-4-oxo-6,7-dihydro-4H-pyrimido[6,1-a]isoquinolin-2-yl)oxy)methyl)-2-((2-(trifluoromethyl)pyrimidin-5-yl)oxy)benzonitrile]	at least 8.0
COc1ccc2c(c1)CCn1c-2cc(OCc2cc(F)c(Oc3ccc(C(F)(F)F)nc3)c(F)c2)nc1=O [Example 76, 2-((3,5-difluoro-4-((6-(trifluoromethyl)pyridin-3-yl)oxy)benzyl)oxy)-9-methoxy-6,7-dihydro-4H-pyrimido[6,1-a]isoquinolin-4-one]	at least 8.0
COc1ccc2c(c1)CCn1c-2cc(OCCc2ccc(Oc3ccc(C(F)(F)F)nc3)c(C#N)c2)nc1=O [Example E55, 5-(2-((9-methoxy-4-oxo-6,7-dihydro-4H-pyrimido[6,1-a]isoquinolin-2-yl)oxy)ethyl)-2-((6-(trifluoromethyl)pyridin-3-yl)oxy)benzonitrile]	at least 8.0
COc1ccc2c(c1)CCn1c-2cc(NCc2ccc(Oc3cncc(Cl)c3)c(C#N)c2)nc1=O [Example E28, 2-((5-Chloropyridin-3-yl)oxy)-5-(((9-methoxy-4-oxo-6,7-dihydro-4H-pyrimido[6,1-a]isoquinolin-2-yl)amino)methyl)benzonitrile]	at least 8.0
COc1ccc2c(c1)CCn1c-2cc(OCCc2ccc(Oc3ccc(C(F)(F)F)cn3)cc2)nc1=O [Example E66, 9-methoxy-2-(4-((5-(trifluoromethyl)pyridin-2-yl)oxy)phenethoxy)-6,7-dihydro-4H-pyri-mido[6,1-a]isoquinolin-4-one]	at least 8.0
Cc1ccc2c(c1)CCn1c-2cc(OCc2cc(F)c(Oc3cnc(C(F)(F)F)nc3)c(F)c2)nc1=O [Example 126, 2-((3,5-difluoro-4-((2-(trifluoromethyl)pyrimidin-5-yl)oxy)benzyl)oxy)-9-methyl-6,7-dihydro-4H-pyrimido[6,1-a]isoquinolin-4-one]	at least 8.0
Cc1ccc2c(c1)CCn1c-2cc(OCc2ccc(Oc3cccc(C(F)(F)F)n3)c(F)c2)nc1=O [Example 128, 2-((3-fluoro-4-((6-(trifluoromethyl)pyridin-2-yl)oxy)benzyl)oxy)-9-methyl-6,7-dihydro-4H-pyrimido[6,1-a]isoquinolin-4-one]	at least 8.0
Cc1ccc2c(c1)CCn1c-2cc(OCc2ccc(Oc3cnc(C(F)(F)F)nc3)c(F)c2)nc1=O [Example 116, 2-((3-fluoro-4-((2-(trifluoromethyl)pyrimidin-5-yl)oxy)benzyl)oxy)-9-methyl-6,7-dihydro-4H-pyrimido[6,1-a]isoquinolin-4-one]	at least 8.0
N#Cc1cc(COc2cc3n(c(=O)n2)CCc2cc(Cl)ccc2-3)ccc1Oc1ccc(C(F)(F)F)nc1 [Example 135, 5-(((9-chloro-4-oxo-6,7-dihydro-4H-pyrimido[6,1-a]isoquinolin-2-yl)oxy)methyl)-2-((6-(trifluoromethyl)pyridin-3-yl)oxy)benzonitrile]	at least 8.0
COc1ccc2c(c1)CCn1c-2cc(OCCc2ccc(Oc3ccc(C(F)(F)F)nc3)c(F)c2)nc1=O [Example E68, 2-(3-fluoro-4-((6-(trifluoromethyl)pyridin-3-yl)oxy)phenethoxy)-9-methoxy-6,7-dihydro-4H-pyrimido[6,1-a]isoquinolin-4-one]	at least 8.0
COc1ccc2c(c1)CCn1c-2cc(OCc2ccc(Oc3cncc(C#N)c3)c(C#N)c2)nc1=O [Example E32, 5-(2-Cyano-4-(((9-methoxy-4-oxo-6,7-dihydro-4H-pyrimido[6,1-a]isoqui-nolin-2-yl)oxy)methyl)phenoxy)nicotinonitrile]	at least 8.0
